Data as given in PubChem BioAssay AID504786 (Drosophila RNAi Screening Center, 2011)
Aim: 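Knock-downs reducing HIF reporter induction by the iron chelator DFO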 (primary screen). Cells: Drosophila S2 cells with a stable HIF luciferase reporter. Reagent: long dsRNA against Drosophila genes, about 0.2 µg dsRNA per well of a 384-well plate. Time to read-out: three days of knock-down, then 20 h of DFO before reading. Conditions: desferrioxamine (DFO) at 100 µM, an iron chelator that mimics hypoxia, for 20 h. Detection: 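Firefly luciferase driven by the mouse ldh-a hypoxia-response element, measured after 20 h of 100 µM DFO; z-scores per plate, higher means more signal lost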. Direction: z-score: higher = stronger loss of HIF reporter signal.
The deposit covers about 21,000 reagents; below is a random part of those that have a named target and a result. 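Primary screen; positive scores mean lost reporter signal, so the sign may be inverted from the usual convention.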 Not all columns of the deposit are shown.

Depletion of CG15036 [SID104197760] came out at: z-score, replicate 1 = 0.5.
With knock-down of TotF [SID104182097], the record shows z-score, replicate 1 = -0.1.
mats [SID104193354] gave z-score, replicate 1 = -0.7.
For mats [SID104194494] the deposit lists z-score, replicate 1 = -0.4.
With knock-down of Tsp68C [SID104189087] the results were z-score, replicate 1 = 0.3.
betaNACtes4 [SID104199593] showed z-score, replicate 1 = -0.3.
After knock-down of Syt12 [SID104199151], the screen gave z-score, replicate 1 = -0.4.
After knock-down of Pkg21D [SID104180564] the results were z-score, replicate 1 = -0.2.
Against dysc [SID104190065] the deposit lists z-score, replicate 1 = -0.3.
dysc [SID104190832] scored z-score, replicate 1 = -0.2.
With knock-down of squ [SID104181341], the screen gave z-score, replicate 1 = -0.4.
Against cid [SID104185221] the deposit lists z-score, replicate 1 = -0.1.
cid [SID104187384] showed z-score, replicate 1 = -0.3.
CG33937 (retired record) [SID104194940] showed z-score, replicate 1 = -0.2.
Silencing of CG15449 [SID104200313] came out at: z-score, replicate 1 = -0.2.
Knock-down of CG13643 [SID104194433] came out at: z-score, replicate 1 = -0.1.
Against CG13643 [SID104194434], the entry reads z-score, replicate 1 = -0.2.
For tyn [SID104200444], the values are z-score, replicate 1 = -0.4.
Knock-down of CG7320 [SID104190602] came out at: z-score, replicate 1 = -0.3.
After knock-down of RFeSP [SID104180494], the screen gave z-score, replicate 1 = -0.3.
With knock-down of CG30291 [SID104183634], the record shows z-score, replicate 1 = -0.8.
CG11034 [SID104181913] showed z-score, replicate 1 = -0.2.
Against CG11034 [SID104181914] the deposit lists z-score, replicate 1 = -0.4.
MED28 [SID104195513] showed z-score, replicate 1 = 1.1.
For Muc11A [SID104199290] the deposit lists z-score, replicate 1 = -0.3.

Entries above whose target name starts with T or t (3):
TotF [SID104182097] → z-score, replicate 1 = -0.1
Tsp68C [SID104189087] → z-score, replicate 1 = 0.3
tyn [SID104200444] → z-score, replicate 1 = -0.4

The list goes on.
With knock-down of ssp6 [SID104188583], the screen gave z-score, replicate 1 = -0.1.
Knock-down of ssp6 [SID104190469] resulted in: z-score, replicate 1 = 0.3.
Against CG31198 [SID104195683], the entry reads z-score, replicate 1 = -0.1.
CG40191 [SID104200833] gave z-score, replicate 1 = 0.4.
Depletion of Sfp26Ad [SID104180696] came out at: z-score, replicate 1 = 1.7.
Depletion of Lcp65Ag3 [SID104190137] resulted in: z-score, replicate 1 = -0.4.
Against c12.1 [SID104198542], the entry reads z-score, replicate 1 = -0.2.
hdly [SID104195641] scored z-score, replicate 1 = 0.2.
With knock-down of pxb [SID104192902], the record shows z-score, replicate 1 = 0.6.
Against pxb [SID104194788], the values are z-score, replicate 1 = -0.5.
Against pxb [SID104194789] the deposit lists z-score, replicate 1 = -0.4.
For Gdh [SID104196471] the deposit lists z-score, replicate 1 = -0.1.
With knock-down of CG13375 [SID104198413], the record shows z-score, replicate 1 = -0.4.
unk [SID104196885] scored z-score, replicate 1 = -0.3.
For tfc [SID104187745] the deposit lists z-score, replicate 1 = -0.2.
After knock-down of tfc [SID104187746] the results were z-score, replicate 1 = 6.3.
tfc [SID104188418] scored z-score, replicate 1 = 0.
